Measured values from paper PMC9091226.
Results are given in words; binding and its absence hold for the method and conditions named. In cells and extracts the contact can be indirect. Binding can be weak; no strength is given. Tags and fused reporters may be left off the sequences shown.

Target: T1, HiBiT-tagged HK2 (hexokinase 2), endogenously tagged in HL60 cells (human (endogenous in HL60)) (UniProt P52789)
T1 sequence: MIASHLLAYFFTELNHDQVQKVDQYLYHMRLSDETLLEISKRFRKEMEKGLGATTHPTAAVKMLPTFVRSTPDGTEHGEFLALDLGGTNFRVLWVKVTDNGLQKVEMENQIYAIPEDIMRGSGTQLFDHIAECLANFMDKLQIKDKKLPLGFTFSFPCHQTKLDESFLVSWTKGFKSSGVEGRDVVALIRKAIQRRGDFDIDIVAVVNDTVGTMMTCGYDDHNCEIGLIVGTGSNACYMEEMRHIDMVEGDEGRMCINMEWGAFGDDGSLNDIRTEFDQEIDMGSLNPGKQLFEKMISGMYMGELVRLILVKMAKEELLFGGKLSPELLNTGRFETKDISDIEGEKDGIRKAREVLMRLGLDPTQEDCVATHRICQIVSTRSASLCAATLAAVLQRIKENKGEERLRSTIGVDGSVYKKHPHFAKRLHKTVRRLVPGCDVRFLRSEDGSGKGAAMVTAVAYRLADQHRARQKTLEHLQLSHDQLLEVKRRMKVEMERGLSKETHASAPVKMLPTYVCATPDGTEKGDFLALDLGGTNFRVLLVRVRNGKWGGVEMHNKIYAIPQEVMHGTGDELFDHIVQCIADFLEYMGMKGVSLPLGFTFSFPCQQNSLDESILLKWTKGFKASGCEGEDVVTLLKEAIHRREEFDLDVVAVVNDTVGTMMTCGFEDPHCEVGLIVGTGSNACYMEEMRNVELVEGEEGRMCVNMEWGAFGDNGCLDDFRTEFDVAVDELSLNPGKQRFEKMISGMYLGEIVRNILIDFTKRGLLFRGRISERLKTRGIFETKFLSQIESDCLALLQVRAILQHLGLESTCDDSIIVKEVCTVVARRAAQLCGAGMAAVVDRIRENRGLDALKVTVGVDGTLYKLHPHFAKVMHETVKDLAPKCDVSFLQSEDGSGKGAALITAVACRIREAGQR
Assay: proximity ligation; Duolink in situ PLA on fixed, permeabilised HL60 cells with endogenously HiBiT-tagged HK2 or HK3; mouse anti-HiBiT combined with rabbit anti-VDAC or rabbit anti-BIM; with and without ATRA treatment; confocal imaging

binding: binds
Substance: voltage-dependent anion channel (VDAC) (human (endogenous in HL60))
